Data as given in PubChem BioAssay AID1259254 (NCATS, 2017).
Assay: 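Finding genes that stop cells copying their DNA twice in one cycle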 (primary screen). System: human HCT116 colorectal cancer cells. Knock-down reagent: single siRNA against human genes. Timing: 3 days. Measured: 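Nuclei stained with Hoechst and imaged; cell-cycle phase assigned by DNA content; G2 share scaled per plate, non-targeting siRNA 0%, GMNN siRNA 100%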. Reading the numbers: G2 robust z-score: higher = more G2 cells, more excess DNA replication. Rule for the call: 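An siRNA counts as active if its G2 robust z-score lies at least 5 MADs above the screen median; here such calls match roughly 38% of GMNN control or more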.
Here is an unselected part of about 59,000 reagents tested. Of all reagents, about 1,550 (2.6%) are marked active. 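G2 share is only a proxy for re-replication; each gene was hit by three separate siRNAs, and active genes were retested.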 Entries without a mark were called inactive. Reagents against one gene are numbered here. Not all columns of the deposit are shown. Not stated in the record: the amount of reagent.

NAT14 #1
- G2 robust z-score: 2.69

NAT14 #2
- G2 robust z-score: 0.175

NAT14 #3
- G2 robust z-score: 1.45

COL5A2 #1
- G2 robust z-score: -0.665

COL5A2 #2
- G2 robust z-score: 0.621

COL5A2 #3
- G2 robust z-score: -0.884

Continued (2 carried over from the part before).
COL5A2 #2
- G2 robust z-score: 0.621

COL5A2 #3
- G2 robust z-score: -0.884

GTPBP8 #1
- G2 robust z-score: -0.704

GTPBP8 #2
- G2 robust z-score: -0.166

GTPBP8 #3
- G2 robust z-score: -0.945

C12orf42 #1
- G2 robust z-score: -0.466

C12orf42 #2
- G2 robust z-score: -0.418

C12orf42 #3
- G2 robust z-score: 1.9
